According to the supplement of paper PMC12819154, “High-throughput peptide-centric local stability assay extends protein–ligand identification to membrane proteins, tissues and bacteria” (Nature Structural & Molecular Biology, 2025):
Some of the results follow. Most values lie at the level of the controls, where differences are scatter.

Chains of the proteins cited; added tags and fusions are not shown. Lines headed by an entry give the natural chain unless they say otherwise; changes in a name come on top.
UniProt Q15131: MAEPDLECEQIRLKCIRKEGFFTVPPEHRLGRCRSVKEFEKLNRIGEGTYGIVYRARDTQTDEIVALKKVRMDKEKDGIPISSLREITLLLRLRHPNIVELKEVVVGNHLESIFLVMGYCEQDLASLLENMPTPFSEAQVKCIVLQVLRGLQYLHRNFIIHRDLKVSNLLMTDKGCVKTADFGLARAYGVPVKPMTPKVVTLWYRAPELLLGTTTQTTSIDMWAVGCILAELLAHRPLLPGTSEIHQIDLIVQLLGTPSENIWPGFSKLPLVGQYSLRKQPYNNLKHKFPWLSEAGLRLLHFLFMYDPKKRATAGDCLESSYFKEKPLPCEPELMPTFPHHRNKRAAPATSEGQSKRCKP
UniProt Q16795, whole entry: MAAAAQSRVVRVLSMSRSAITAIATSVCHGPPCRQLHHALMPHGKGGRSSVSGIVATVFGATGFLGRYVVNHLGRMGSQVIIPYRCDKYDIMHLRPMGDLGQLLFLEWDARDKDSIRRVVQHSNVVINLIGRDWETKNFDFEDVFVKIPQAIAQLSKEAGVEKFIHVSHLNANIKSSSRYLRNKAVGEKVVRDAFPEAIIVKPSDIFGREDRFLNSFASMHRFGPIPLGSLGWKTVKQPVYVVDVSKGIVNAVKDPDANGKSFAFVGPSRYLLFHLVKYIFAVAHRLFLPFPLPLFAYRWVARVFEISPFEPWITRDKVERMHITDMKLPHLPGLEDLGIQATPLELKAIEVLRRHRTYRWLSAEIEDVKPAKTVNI
UniProt Q15907: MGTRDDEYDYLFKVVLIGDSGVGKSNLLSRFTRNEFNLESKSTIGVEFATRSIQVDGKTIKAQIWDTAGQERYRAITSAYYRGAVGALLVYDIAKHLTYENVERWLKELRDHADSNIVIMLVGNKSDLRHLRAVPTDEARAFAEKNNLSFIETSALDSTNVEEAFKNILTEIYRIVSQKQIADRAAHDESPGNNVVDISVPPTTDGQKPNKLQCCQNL
UniProt Q16718, whole entry: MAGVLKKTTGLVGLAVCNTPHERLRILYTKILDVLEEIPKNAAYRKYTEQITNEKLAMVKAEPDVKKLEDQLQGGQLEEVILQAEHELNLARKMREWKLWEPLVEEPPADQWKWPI
UniProt Q15293: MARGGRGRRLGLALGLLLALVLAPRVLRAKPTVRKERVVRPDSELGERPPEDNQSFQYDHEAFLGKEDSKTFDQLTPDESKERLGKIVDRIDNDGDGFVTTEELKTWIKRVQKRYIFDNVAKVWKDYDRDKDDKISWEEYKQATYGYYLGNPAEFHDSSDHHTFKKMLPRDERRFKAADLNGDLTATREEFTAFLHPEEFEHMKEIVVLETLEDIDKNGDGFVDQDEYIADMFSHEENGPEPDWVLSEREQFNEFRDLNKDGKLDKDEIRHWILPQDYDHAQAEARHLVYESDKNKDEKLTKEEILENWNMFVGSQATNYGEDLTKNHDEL
UniProt Q16881, whole entry: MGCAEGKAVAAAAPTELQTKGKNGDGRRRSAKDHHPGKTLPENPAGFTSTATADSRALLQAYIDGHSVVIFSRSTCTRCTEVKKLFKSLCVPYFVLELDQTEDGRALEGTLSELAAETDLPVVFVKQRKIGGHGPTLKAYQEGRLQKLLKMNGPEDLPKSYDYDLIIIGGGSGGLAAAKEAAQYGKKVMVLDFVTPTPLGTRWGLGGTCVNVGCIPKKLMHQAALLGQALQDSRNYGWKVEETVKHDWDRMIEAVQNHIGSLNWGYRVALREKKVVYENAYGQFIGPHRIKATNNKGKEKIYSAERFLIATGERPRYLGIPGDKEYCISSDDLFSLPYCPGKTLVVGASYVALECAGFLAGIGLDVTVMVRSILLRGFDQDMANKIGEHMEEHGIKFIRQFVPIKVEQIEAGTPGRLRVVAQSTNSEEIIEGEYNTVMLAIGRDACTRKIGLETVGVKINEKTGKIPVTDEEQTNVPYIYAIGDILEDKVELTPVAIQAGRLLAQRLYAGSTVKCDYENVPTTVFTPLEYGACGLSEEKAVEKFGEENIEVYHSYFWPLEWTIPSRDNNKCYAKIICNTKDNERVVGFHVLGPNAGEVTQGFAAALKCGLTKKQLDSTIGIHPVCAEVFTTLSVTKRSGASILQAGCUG
UniProt Q16204: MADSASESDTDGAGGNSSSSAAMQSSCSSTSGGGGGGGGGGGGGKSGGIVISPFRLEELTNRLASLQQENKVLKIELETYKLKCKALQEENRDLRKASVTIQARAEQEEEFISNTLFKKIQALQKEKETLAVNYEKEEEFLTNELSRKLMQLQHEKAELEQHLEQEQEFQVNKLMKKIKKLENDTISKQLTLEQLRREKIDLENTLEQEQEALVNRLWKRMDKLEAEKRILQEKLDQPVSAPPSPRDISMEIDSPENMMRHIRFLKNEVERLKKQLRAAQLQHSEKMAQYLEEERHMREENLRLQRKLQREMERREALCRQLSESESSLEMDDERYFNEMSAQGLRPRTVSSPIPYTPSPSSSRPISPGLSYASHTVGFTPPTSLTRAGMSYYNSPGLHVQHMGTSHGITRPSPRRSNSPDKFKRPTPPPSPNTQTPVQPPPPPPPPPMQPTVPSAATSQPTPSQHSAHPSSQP
UniProt Q499Z4: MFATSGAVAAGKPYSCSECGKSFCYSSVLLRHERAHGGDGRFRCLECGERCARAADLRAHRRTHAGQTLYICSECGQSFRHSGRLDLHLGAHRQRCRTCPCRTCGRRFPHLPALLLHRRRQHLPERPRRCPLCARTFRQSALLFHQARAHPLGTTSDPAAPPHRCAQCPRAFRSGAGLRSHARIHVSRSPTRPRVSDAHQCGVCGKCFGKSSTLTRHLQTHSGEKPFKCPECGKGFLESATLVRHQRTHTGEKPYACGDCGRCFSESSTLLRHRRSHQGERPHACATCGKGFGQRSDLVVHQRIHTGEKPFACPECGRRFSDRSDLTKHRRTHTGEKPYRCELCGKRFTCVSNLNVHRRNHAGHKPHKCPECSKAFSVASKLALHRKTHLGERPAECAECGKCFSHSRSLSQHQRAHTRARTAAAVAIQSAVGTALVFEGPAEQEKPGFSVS
UniProt Q15633: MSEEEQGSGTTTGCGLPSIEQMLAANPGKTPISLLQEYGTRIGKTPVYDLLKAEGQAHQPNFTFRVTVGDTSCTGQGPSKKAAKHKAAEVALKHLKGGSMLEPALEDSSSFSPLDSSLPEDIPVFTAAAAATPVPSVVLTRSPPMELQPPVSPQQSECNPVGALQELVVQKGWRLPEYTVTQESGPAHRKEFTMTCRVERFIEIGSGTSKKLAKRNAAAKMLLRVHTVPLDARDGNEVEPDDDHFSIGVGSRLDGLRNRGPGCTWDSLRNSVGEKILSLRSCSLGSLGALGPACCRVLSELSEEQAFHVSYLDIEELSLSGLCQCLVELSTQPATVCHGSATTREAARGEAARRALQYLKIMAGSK
UniProt Q16181: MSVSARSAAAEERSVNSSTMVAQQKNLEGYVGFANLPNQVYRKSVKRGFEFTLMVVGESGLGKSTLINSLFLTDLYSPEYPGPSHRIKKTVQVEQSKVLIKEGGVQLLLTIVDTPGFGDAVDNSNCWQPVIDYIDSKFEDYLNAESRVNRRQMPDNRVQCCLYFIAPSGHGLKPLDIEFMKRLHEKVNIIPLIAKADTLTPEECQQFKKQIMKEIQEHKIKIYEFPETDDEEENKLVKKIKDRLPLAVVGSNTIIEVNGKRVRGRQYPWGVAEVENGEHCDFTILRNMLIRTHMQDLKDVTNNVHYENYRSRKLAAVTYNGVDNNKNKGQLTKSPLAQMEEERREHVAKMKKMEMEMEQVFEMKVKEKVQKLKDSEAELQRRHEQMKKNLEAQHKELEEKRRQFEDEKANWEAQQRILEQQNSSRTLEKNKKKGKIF
UniProt Q16222: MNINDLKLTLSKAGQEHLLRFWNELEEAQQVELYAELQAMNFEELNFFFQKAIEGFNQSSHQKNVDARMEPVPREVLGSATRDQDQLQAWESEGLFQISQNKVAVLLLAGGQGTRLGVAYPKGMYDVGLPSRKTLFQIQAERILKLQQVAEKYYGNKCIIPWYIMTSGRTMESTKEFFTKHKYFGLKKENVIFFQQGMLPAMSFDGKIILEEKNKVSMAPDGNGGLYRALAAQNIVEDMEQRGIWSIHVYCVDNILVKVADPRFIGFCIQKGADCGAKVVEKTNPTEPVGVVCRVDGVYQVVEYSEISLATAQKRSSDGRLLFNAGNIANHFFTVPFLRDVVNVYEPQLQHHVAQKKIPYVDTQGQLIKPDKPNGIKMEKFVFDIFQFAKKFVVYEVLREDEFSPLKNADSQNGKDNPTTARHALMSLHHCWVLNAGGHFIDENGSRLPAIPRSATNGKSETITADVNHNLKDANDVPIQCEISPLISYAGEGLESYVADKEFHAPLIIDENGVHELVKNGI

compound: CN[C@@H]1C[C@H]2O[C@@](C)([C@@H]1OC)n1c3ccccc3c3c4c(c5c6ccccc6n2c5c31)C(=O)NC4 [staurosporine]; assay: log2 fold change of tryptic peptide abundance, ligand vs vehicle (limited proteolysis) (log2 ratio); higher = more trypsin-susceptible (destabilized); conditions: ligand concentration: 20 uM; sample: K562 cleared lysate; digestion: 4 min, 22 C (HT-PELSA RT4min, Orbitrap Astral)

Target	log2 fold change
CDK10 (peptide sequence: DGIPISSLR, peptide start residue: 77) (UniProt Q15131)	-0.85
NDUFA9 (peptide sequence: FGPIPLGSLGWK, peptide start residue: 223) (UniProt Q16795)	0.477
RAB11B (peptide sequence: NILTEIYR, peptide start residue: 167) (UniProt Q15907)	0.235
NDUFA5 (peptide sequence: ILDVLEEIPK, peptide start residue: 31) (UniProt Q16718)	0.0723
RCN1 (peptide sequence: DGKLDKDEIR, peptide start residue: 261) (UniProt Q15293)	0.608
TXNRD1 (peptide sequence: MIEAVQNHIGSLNWGYR, peptide start residue: 251) (UniProt Q16881)	-0.415
CCDC6 (peptide sequence: LASLQQENKVLK, peptide start residue: 63) (UniProt Q16204)	1.08
ZNF672 (peptide sequence: VSDAHQCGVCGK, peptide start residue: 195) (UniProt Q499Z4)	-0.749
TARBP2 (peptide sequence: EFTMTCR, peptide start residue: 191) (UniProt Q15633)	0.597
UniProt Q16181 (peptide sequence: MEMEMEQVFEMK, peptide start residue: 353)	-0.804
UAP1 (peptide sequence: DVVNVYEPQLQHHVAQK, peptide start residue: 340) (UniProt Q16222)	-0.473

A few values from the list.
In log2 fold change, NDUFA9 (peptide sequence: FGPIPLGSLGWK, peptide start residue: 223) (UniProt Q16795) reads 0.477
In log2 fold change, CCDC6 (peptide sequence: LASLQQENKVLK, peptide start residue: 63) (UniProt Q16204) reads 1.08
